Laboratory results: patent US20060235215A1
These are yes or no findings as the source states them, for the method shown. Some results given as binding are weak or reduced against the parent protein; the word gives no strength. Blank lines part the entries; values can stand above or below the binder they belong to.

Columns and labels:
Test in all cases: yeast two-hybrid
[1] = biological target: T1, Elicitor responsive protein, bait fragment aa 23-120 (Oryza sativa) (UniProt Q0JBH9)
T1 sequence: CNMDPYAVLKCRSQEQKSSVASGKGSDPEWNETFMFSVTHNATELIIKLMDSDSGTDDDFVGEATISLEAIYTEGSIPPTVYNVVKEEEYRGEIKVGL

[2] = biological target: T2, O. sativa Defender Against Apoptotic Death 1, bait clone aa 30-115 (Oryza sativa) (UniProt A2XSY1)
T2 sequence: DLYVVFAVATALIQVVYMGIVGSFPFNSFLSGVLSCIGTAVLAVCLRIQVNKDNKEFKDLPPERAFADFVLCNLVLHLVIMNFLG

[3] = biological target: T3, O. sativa 14-3-3 Protein Homolog GF14-c, bait fragment aa 1-150 (Oryza sativa) (UniProt Q6ZKC0)
T3 sequence: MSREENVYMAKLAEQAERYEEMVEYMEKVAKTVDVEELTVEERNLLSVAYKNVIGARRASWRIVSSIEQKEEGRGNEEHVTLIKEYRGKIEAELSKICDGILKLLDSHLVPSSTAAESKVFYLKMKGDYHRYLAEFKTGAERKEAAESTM

- binding [1]: binds
B1: Xanthine dehydrogenase-like PN29997, prey clone printed 737/918 (protein)
chain: KAGSFHPNSKRCLVKGNVEQCFLSGACDRIIEGKVQVGGQEHFYMEPQSTLVWPVDSGNEIHMISSTQAPQKHQKYVANVLGLPQSRVVCKTKRIGGGFGGKETRSAIFAAAASVAAYCLRQPVKLVLDRDIDMMTTGQRHSFLGKYKVGFTDDGKILALDLDVYNNGGHSHDLSLPVLERA

B2: Novel Protein PN23022, Fragment, similar to H. vulgare Plasma Membrane H+-ATPase, prey clone aa 37-371 (protein)
chain: LFDPPRHDSAETIRKALHLGVNVKMITGDQLAIGKETGRRLGMGTNMYPSSALLGQNKDASLEALPVDELIEKADGFAGVFPEHKYEIVKRLQEKKHIVGMTGDGVNDAPALKKADIGIAVADAIDAARSASDIVLTEPGLSVIISAVLTSRCIFQRMKNYTIYAVSITIRIVLGFLLIALIWKYDFSPFMVLIIAILNDGTIMTISKDRVKPSPLPDSWKLKEIFATGIVLGSYLALMTVIFFWAMHKTDFFTDKFGVRSIRNSEHEMMSALYLQVSIVSQALIFVTRSRSWSFIERPGLLLVTAFMLAQLVATFLAVYANWGFARIKGIGWGW
- binding [2]: binds

- binding [3]: binds
B3: Novel Protein PN23022, Fragment, similar to H. vulgare Plasma Membrane H+-ATPase, prey clone aa 149-285 (protein)
chain: KKADIGIAVADAIDAARSASDIVLTEPGLSVIISAVLTSRCIFQRMKNYTIYAVSITIRIVLGFLLIALIWKYDFSPFMVLIIAILNDGTIMTISKDRVKPSPLPDSWKLKEIFATGIVLGSYLALMTVIFFWAMHK
